# Experimental data reported in patent US20150373970A1, “ANTIMICROBIAL COMPOSITIONS, WIPES, AND METHODS” (3M INNOVATIVE PROPERTIES COMPANY, priority 2013, published 2015).
# Assay: Residue/haze left behind on drying of antimicrobial lipid
# Details: antimicrobial lipid in dried composition
compound,measurement,value
CCCCCCCCCCCC(=O)OCC(O)CO (stereo not shown) [glycerol monolaurate],residue / haze left behind by drying,significant residue
